{"source": "PubChem BioAssay AID1259425 (University of Nebraska Medical Center, 2018)", "assay": "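Find knockdowns that reproduce the gene expression pattern seen when KSR1 is lost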 (primary screen)", "system": "HCT116 human colon cancer cells", "knock-down reagent": "siRNA pool against human genes, 50 nM siRNA", "read-out": "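After 50 nM siRNA pool, branched-DNA assay measures six marker transcripts per well, minus blank, normalised to the geometric mean of two housekeeping transcripts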", "reading the numbers": "BNIP3L mRNA: higher = more BNIP3L transcript after knockdown; NDRG1 mRNA: higher = more NDRG1 transcript after knockdown", "note": "Shown is an unselected part of about 14,000 reagents. Further read-outs or replicates are left out here. Not stated in the record: the time to read-out."}
{"Gene": "HBG1", "PubChem SID": "SID363991881", "BNIP3L mRNA, set 1": 0.0803, "NDRG1 mRNA, set 1": 0.105}
{"Gene": "KCNIP3", "PubChem SID": "SID363998513", "BNIP3L mRNA, set 1": 0.0807, "NDRG1 mRNA, set 1": 0.0789}
{"Gene": "CBLB", "PubChem SID": "SID364004796", "BNIP3L mRNA, set 1": 0.107, "NDRG1 mRNA, set 1": 0.0922}
{"Gene": "CREB3L3", "PubChem SID": "SID364004094", "BNIP3L mRNA, set 1": 0.245, "NDRG1 mRNA, set 1": 0.452}
{"Gene": "OR1D5", "PubChem SID": "SID363998938", "BNIP3L mRNA, set 1": 0.088, "NDRG1 mRNA, set 1": 0.358}
{"Gene": "MAST3", "PubChem SID": "SID364005102", "BNIP3L mRNA, set 1": 0.0655, "NDRG1 mRNA, set 1": 0.454}
{"Gene": "CD300LB", "PubChem SID": "SID364004854", "BNIP3L mRNA, set 1": 0.098, "NDRG1 mRNA, set 1": 0.245}
{"Gene": "LRRC47", "PubChem SID": "SID364001791", "BNIP3L mRNA, set 1": 0.185, "NDRG1 mRNA, set 1": 0.223}
{"Gene": "ACSBG1", "PubChem SID": "SID363999338", "BNIP3L mRNA, set 1": 0.146, "NDRG1 mRNA, set 1": 0.219}
{"Gene": "MLST8", "PubChem SID": "SID364002426", "BNIP3L mRNA, set 1": 0.205, "NDRG1 mRNA, set 1": 0.389}
{"Gene": "DLL4", "PubChem SID": "SID364001380", "BNIP3L mRNA, set 1": 0.0613, "NDRG1 mRNA, set 1": 0.11}
{"Gene": "ACAD10", "PubChem SID": "SID364003346", "BNIP3L mRNA, set 1": 0.249, "NDRG1 mRNA, set 1": 0.327}
{"Gene": "BMP2K", "PubChem SID": "SID364000384", "BNIP3L mRNA, set 1": 0.0674, "NDRG1 mRNA, set 1": 0.0857}
{"Gene": "ZBTB7A", "PubChem SID": "SID363999702", "BNIP3L mRNA, set 1": 0.0856, "NDRG1 mRNA, set 1": 0.148}
{"Gene": "PLPP2", "PubChem SID": "SID363994781", "BNIP3L mRNA, set 1": 0.109, "NDRG1 mRNA, set 1": 0.283}
{"Gene": "MAPK11", "PubChem SID": "SID363993909", "BNIP3L mRNA, set 1": 0.144, "NDRG1 mRNA, set 1": 0.097}
{"Gene": "IL12RB2", "PubChem SID": "SID363992815", "BNIP3L mRNA, set 1": 0.0622, "NDRG1 mRNA, set 1": 0.345}
{"Gene": "ARHGEF7", "PubChem SID": "SID363994957", "BNIP3L mRNA, set 1": 0.0697, "NDRG1 mRNA, set 1": 0.0948}
{"Gene": "PECAM1", "PubChem SID": "SID363991773", "BNIP3L mRNA, set 1": 0.0667, "NDRG1 mRNA, set 1": 0.103}
{"Gene": "ASRGL1", "PubChem SID": "SID364003238", "BNIP3L mRNA, set 1": 0.116, "NDRG1 mRNA, set 1": 0.2}
{"Gene": "PSG3", "PubChem SID": "SID364001956", "BNIP3L mRNA, set 1": 0.126, "NDRG1 mRNA, set 1": 0.28}
{"Gene": "SAP130", "PubChem SID": "SID364002861", "BNIP3L mRNA, set 1": 0.207, "NDRG1 mRNA, set 1": 0.312}
{"Gene": "ETV1", "PubChem SID": "SID363995898", "BNIP3L mRNA, set 1": 0.0821, "NDRG1 mRNA, set 1": 0.131}
{"Gene": "PARS2", "PubChem SID": "SID364004700", "BNIP3L mRNA, set 1": 0.0584, "NDRG1 mRNA, set 1": 0.154}
{"Gene": "MESD", "PubChem SID": "SID364005420", "BNIP3L mRNA, set 1": 0.0829, "NDRG1 mRNA, set 1": 1.57}
{"Gene": "HTR4", "PubChem SID": "SID363992157", "BNIP3L mRNA, set 1": 0.119, "NDRG1 mRNA, set 1": 0.181}
{"Gene": "NACAD", "PubChem SID": "SID364005313", "BNIP3L mRNA, set 1": 0.0634, "NDRG1 mRNA, set 1": 0.428}
{"Gene": "TXNDC2", "PubChem SID": "SID364003847", "BNIP3L mRNA, set 1": 0.261, "NDRG1 mRNA, set 1": 0.209}
